In article doi:10.1101/2025.11.18.689162 (bioRxiv, 2025):
Read-outs that look alike come from different tables or passages of the source. Results are given in words; binding and its absence hold for the method and conditions named. In cells and extracts the contact can be indirect. Some results given as binding are weak or reduced against the parent protein; the word gives no strength.

The chains behind the UniProt entries cited, without tags or fusion partners. Where a name states a change or a piece, a line headed by the entry shows the natural chain unless it says otherwise. A line that says so, or that is headed by a name, gives the form on record, which may keep a tag or linker.
PDE4D9, human, endogenous (Q08499-10, form named): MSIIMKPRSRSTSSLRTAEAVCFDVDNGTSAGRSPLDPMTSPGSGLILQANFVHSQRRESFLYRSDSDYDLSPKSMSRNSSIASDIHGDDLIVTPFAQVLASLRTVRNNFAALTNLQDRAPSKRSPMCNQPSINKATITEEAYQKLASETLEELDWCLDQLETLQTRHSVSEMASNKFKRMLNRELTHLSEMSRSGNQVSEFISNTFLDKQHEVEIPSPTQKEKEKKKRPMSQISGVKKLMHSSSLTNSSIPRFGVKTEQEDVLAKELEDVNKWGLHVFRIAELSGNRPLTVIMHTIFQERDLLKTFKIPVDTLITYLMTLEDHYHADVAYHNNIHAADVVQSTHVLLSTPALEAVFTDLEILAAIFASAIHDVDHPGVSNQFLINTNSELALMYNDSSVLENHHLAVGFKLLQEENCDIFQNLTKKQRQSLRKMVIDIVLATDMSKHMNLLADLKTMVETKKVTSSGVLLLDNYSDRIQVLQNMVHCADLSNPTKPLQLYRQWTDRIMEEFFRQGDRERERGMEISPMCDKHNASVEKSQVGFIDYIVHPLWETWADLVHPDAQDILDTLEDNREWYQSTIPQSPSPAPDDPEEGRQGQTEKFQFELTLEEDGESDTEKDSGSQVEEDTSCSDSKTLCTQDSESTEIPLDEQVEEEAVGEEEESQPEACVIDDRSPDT
UniProt P48787: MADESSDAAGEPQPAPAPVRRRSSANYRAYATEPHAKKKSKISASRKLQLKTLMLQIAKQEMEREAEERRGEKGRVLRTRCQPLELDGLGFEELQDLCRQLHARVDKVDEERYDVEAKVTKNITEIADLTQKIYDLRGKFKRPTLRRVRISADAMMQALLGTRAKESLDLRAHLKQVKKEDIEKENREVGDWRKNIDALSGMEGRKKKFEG
UniProt P23693: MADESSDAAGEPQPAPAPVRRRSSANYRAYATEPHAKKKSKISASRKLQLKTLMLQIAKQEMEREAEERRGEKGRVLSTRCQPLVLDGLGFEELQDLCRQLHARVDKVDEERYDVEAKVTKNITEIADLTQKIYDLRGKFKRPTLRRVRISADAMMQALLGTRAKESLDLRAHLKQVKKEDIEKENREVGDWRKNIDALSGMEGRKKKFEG

Experiments:
Test in all cases: co-IP
[1] = molecular target: PDE4D9-mCherry expressed in HEK293T cells (UniProt Q08499)
[2] = molecular target: TPNI-CUTie expressed in HEK293T cells (UniProt P19429)
[3] = molecular target: cardiac troponin I (TPNI), human, endogenous (human (endogenous in hiPSC-CM and ventricular tissue)) (UniProt P19429)
[4] = molecular target: cardiac troponin I (TPNI), human, endogenous (human (endogenous in hiPSC-CM and ventricular tissue)) (UniProt P19429); remark: listed apart in the source
[5] = molecular target: cardiac troponin I (TPNI), mouse, endogenous (mouse (endogenous in heart)) (UniProt P48787)
[6] = molecular target: cardiac troponin I (TPNI), mouse, endogenous (mouse (endogenous in heart)) (UniProt P48787); remark: listed apart in the source
[7] = molecular target: cardiac troponin I (TPNI), mouse, endogenous (mouse (endogenous in heart)) (UniProt P48787); remark: listed apart in the source
[8] = molecular target: cardiac troponin I (TPNI), rat, endogenous (rat (endogenous in ARVM and NRVM)) (UniProt P23693)

Molecule: TPNI expressed in HEK293T cells (from UniProt P19429 1-210)
- binding [1]: binds

Molecule: PDE4D9-mCherry expressed in HEK293T cells (from UniProt Q08499-10 1-679) (enzyme)
- binding [2]: binds

Molecule: PDE4D9, human, endogenous (from UniProt Q08499-10 1-679) (enzyme)
- binding [3]: binds
- binding [4]: binds

B1: PDE4D9, mouse, endogenous (enzyme, mouse (endogenous in heart), UniProt Q01063-2 1-678, looked up)
chain: MSIIMKPRSRSTSSLRTTEAVCFDVDNGTSAGRSPLDPMTSPGSGLILQANFVHSQRRESFLYRSDSDYDLSPKSMSRNSSIASDIHGDDLIVTPFAQVLASLRTVRNNFAALTNLQDRAPSKRSPMCNQPSINKATITEEAYQKLASETLEELDWCLDQLETLQTRHSVSEMASNKFKRMLNRELTHLSEMSRSGNQVSEYISNTFLDKQHEVEIPSPTQKEKEKKKRPMSQISGVKKLMHSSSLTNSCIPRFGVKTEQEDVLAKELEDVNKWGLHVFRIAELSGNRPLTVIMHTIFQERDLLKTFKIPVDTLITYLMTLEDHYHADVAYHNNIHAADVVQSTHVLLSTPALEAVFTDLEILAAIFASAIHDVDHPGVSNQFLINTNSELALMYNDSSVLENHHLAVGFKLLQEENCDIFQNLTKKQRQSLRKMVIDIVLATDMSKHMNLLADLKTMVETKKVTSSGVLLLDNYSDRIQVLQNMVHCADLSNPTKPLQLYRQWTDRIMEEFFRQGDRERERGMEISPMCDKHNASVEKSQVGFIDYIVHPLWETWADLVHPDAQDILDTLEDNREWYQSTIPQSPSPAPDDQEEGRQGQTEKFQFELTLEEDCESDTEKDSGSQVEEDTSCSDSKTLCTQDSESTEIPLDEQVEEEAVAEEESQPETCVPDDCCPDT
- binding [5]: binds
- binding [6]: binds
- binding [7]: binds

B2: PDE4D9, rat, endogenous (enzyme, UniProt P14270-6 1-678)
chain: MSIIMKPRSRSTSSLRTTEAVCFDVDNGTSAGRSPLDPMTSPGSGLILQANFVHSQRRESFLYRSDSDYDLSPKSMSRNSSIASDIHGDDLIVTPFAQVLASLRTVRNNFAALTNLQDRAPSKRSPMCNQPSINKATITEEAYQKLASETLEELDWCLDQLETLQTRHSVSEMASNKFKRMLNRELTHLSEMSRSGNQVSEYISNTFLDKQHEVEIPSPTQKEKEKKKRPMSQISGVKKLMHSSSLTNSCIPRFGVKTEQEDVLAKELEDVNKWGLHVFRIAELSGNRPLTVIMHTIFQERDLLKTFKIPVDTLITYLMTLEDHYHADVAYHNNIHAADVVQSTHVLLSTPALEAVFTDLEILAAIFASAIHDVDHPGVSNQFLINTNSELALMYNDSSVLENHHLAVGFKLLQEENCDIFQNLTKKQRQSLRKMAIDIVLATDMSKHMNLLADLKTMVETKKVTSSGVLLLDNYSDRIQVLQNMVHCADLSNPTKPLQLYRQWTDRIMEEFFRQGDRERERGMEISPMCDKHNASVEKSQVGFIDYIVHPLWETWADLVHPDAQDILDTLEDNREWYQSTIPQSPSPAPDDQEDGRQGQTEKFQFELTLEEDGESDTEKDSGSQVEEDTSCSDSKTLCTQDSESTEIPLDEQVEEEAVAEEESQPQTGVADDCCPDT
- binding [8]: binds
